The target in the assay is recombinant colanic acid degrading enzyme (CAE), amino acids 107-790 with 6 histidines at the N-terminus (bacteriophage NST1). The assay is described as follows: analytical ultracentrifugation, self-association (homotrimer).

Our source for the binding values is patent US20140093888A1.

No constants are given. Whether binding was seen depends on the method and setting. Some binding calls cover weakened binding; strength is not graded here. Where a sequence is shown, tags or fusion partners need not be part of it.

B1: recombinant colanic acid degrading enzyme (CAE), amino acids 107-790 with 6 histidines at the N-terminus (enzyme)
chain: MGHHHHHHLAPLDRAVRVPNSEVSINALPNVAGRRNKALGFDSNGQPFMIPLVDIPDSALAIALAMADGGKWIGTLGGGTFLDRQDTVCLSEFTNNTGYASVAAAVQACFDYAKANGKVVDARGWEGTVDSTVLMDGIEVVGGTWHGKADIRLLNSTFRNFVASTVRVAYWGGEVRIADYEFTSAPSNSKVTSILFQGNIAGGSYVIENGIHRNGKFGILQQGTGEAITNGVIRGITMMDMQGDGIEMNVINKHYDGGLLIENIFLENIDGTNAPIPLSNWGIGIGIAGQGPFGWDAAETQYAKNVTVRNVHAPRGVRQVVHFEVTRDSTCENVVANPDLSVSIGTGLTAAGVITYGCKRMTIDGVVGEPMNTGATSPNDIRIVMLEWGANQAGAGGTPGAACPSFDMTVRNVQTRTGRFYAGVGSDDDNTNTYHLENIHCYKMTLFGVATLLNMTNVTGVVFDAVGDDSSGGTSSNGLYPRKKTVLNMVNVNFYGPGMTEGALYSKARYSDISTLNSNVRAIPYTNIQGNVGVILSPVNRMYTLPNALATLDGNEFPTGKEFCEGTVLFKTDGSGGNFIVTRFGAYIPDDGNNFKVRAAAAGQTYLEQNLTPAGTQASTSWLYHKPISAGTRLNVPGAGPSGGTLTVTVVRAPYQVDNNIGNPVRIDITPAIVTAIPAGTQLAATYPVAYI
Turning to B1, the binding result is listed as “binds”.
